Taken from: PubChem BioAssay AID504764 (Drosophila RNAi Screening Center, 2011)
The screen tested about 22,000 reagents; below is a random part of those that have a named target and a result. Of all reagents, 403 (1.9%) got an active call. 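Unnormalised raw counts per well; ratio z-scores behind the hit calls and whether each hit raises or lowers signal are not deposited.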 Not given: the amount of reagent.

- Assay: 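Genes whose knock-down alters Notch-dependent transcription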 (primary screen)
- Cells: Drosophila Kc167 cells
- Knock-down reagent: long dsRNA against Drosophila genes
- Timing: about 5 days (4 days dsRNA, then 24 h after transfection)
- Conditions: transfection of constitutively active membrane-tethered Notch lacking the extracellular domain, read 24 h later
- Measured: 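Light from a Notch-responsive E(spl)m3 luciferase reporter under active Notch, with control-promoter and no-Notch reporter wells to normalise; raw counts from paired wells a and b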
- Scale: induced reporter light, run 1, well a and induced reporter light, run 1, well b: higher = more light from the Notch target reporter with active Notch; control promoter light, run 1, well a and control promoter light, run 1, well b: higher = more light from the viral control promoter (cell number, transfection, viability); uninduced reporter light, run 1, well a: higher = more light from the Notch target reporter without active Notch
- Call rule: 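Hit if the duplicate-averaged log2 ratio of induced to control-promoter light gives a plate-wise z beyond ±2, or induced to uninduced beyond ±1.8; weak-control or discordant-duplicate wells dropped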
- Calls: active = modifier hit (raised or lowered Notch signal); inactive = not a hit

CG7990 [DRSC19296]: induced reporter light, run 1, well a = 1.01e5; induced reporter light, run 1, well b = 96600; control promoter light, run 1, well a = 1.19e5; control promoter light, run 1, well b = 1.02e5; uninduced reporter light, run 1, well a = 7282; Outcome = inactive
CG7990 [DRSC20069]: induced reporter light, run 1, well a = 10440; induced reporter light, run 1, well b = 11065; control promoter light, run 1, well a = 12760; control promoter light, run 1, well b = 10210; uninduced reporter light, run 1, well a = 4292; Outcome = inactive
CG13654 [DRSC14654]: induced reporter light, run 1, well a = 1.64e5; induced reporter light, run 1, well b = 1.51e5; control promoter light, run 1, well a = 2.08e5; control promoter light, run 1, well b = 1.87e5; uninduced reporter light, run 1, well a = 13935; Outcome = inactive
CG18048 [DRSC12573]: induced reporter light, run 1, well a = 73695; induced reporter light, run 1, well b = 1.09e5; control promoter light, run 1, well a = 93440; control promoter light, run 1, well b = 66615; uninduced reporter light, run 1, well a = 6485; Outcome = inactive
hob (hobbit) [DRSC08426]: induced reporter light, run 1, well a = 1.41e5; induced reporter light, run 1, well b = 1.27e5; control promoter light, run 1, well a = 1.06e5; control promoter light, run 1, well b = 34430; uninduced reporter light, run 1, well a = 11320; Outcome = inactive
Art1 (Arginine methyltransferase 1) [DRSC16063]: induced reporter light, run 1, well a = 1.61e5; induced reporter light, run 1, well b = 1.15e5; control promoter light, run 1, well a = 1.02e5; control promoter light, run 1, well b = 1.05e5; uninduced reporter light, run 1, well a = 12770; Outcome = inactive
CG3528 [DRSC00611]: induced reporter light, run 1, well a = 1.19e5; induced reporter light, run 1, well b = 1.11e5; control promoter light, run 1, well a = 1.20e5; control promoter light, run 1, well b = 66235; uninduced reporter light, run 1, well a = 11155; Outcome = inactive
CG32511 (retired record) [DRSC20697]: induced reporter light, run 1, well a = 1.89e5; induced reporter light, run 1, well b = 1.75e5; control promoter light, run 1, well a = 3.18e5; control promoter light, run 1, well b = 2.89e5; uninduced reporter light, run 1, well a = 13760; Outcome = inactive
CG3494 [DRSC04375]: induced reporter light, run 1, well a = 2.54e5; induced reporter light, run 1, well b = 1.90e5; control promoter light, run 1, well a = 2.28e5; control promoter light, run 1, well b = 2.17e5; uninduced reporter light, run 1, well a = 16330; Outcome = inactive
Men (Malic enzyme) [DRSC12924]: induced reporter light, run 1, well a = 1.57e5; induced reporter light, run 1, well b = 1.57e5; control promoter light, run 1, well a = 1.95e5; control promoter light, run 1, well b = 1.98e5; uninduced reporter light, run 1, well a = 13480; Outcome = inactive
Men (Malic enzyme) [DRSC16738]: induced reporter light, run 1, well a = 81545; induced reporter light, run 1, well b = 88990; control promoter light, run 1, well a = 85235; control promoter light, run 1, well b = 67360; uninduced reporter light, run 1, well a = 5488; Outcome = inactive
CG8560 [DRSC10994]: induced reporter light, run 1, well a = 1.25e5; induced reporter light, run 1, well b = 1.33e5; control promoter light, run 1, well a = 61395; control promoter light, run 1, well b = 30050; uninduced reporter light, run 1, well a = 9765; Outcome = inactive

Entries listed so far whose gene name starts with M or m:
Men (Malic enzyme) [DRSC12924]: induced reporter light, run 1, well a = 1.57e5; induced reporter light, run 1, well b = 1.57e5; control promoter light, run 1, well a = 1.95e5; control promoter light, run 1, well b = 1.98e5; uninduced reporter light, run 1, well a = 13480; Outcome = inactive
Men (Malic enzyme) [DRSC16738]: induced reporter light, run 1, well a = 81545; induced reporter light, run 1, well b = 88990; control promoter light, run 1, well a = 85235; control promoter light, run 1, well b = 67360; uninduced reporter light, run 1, well a = 5488; Outcome = inactive
